Experimental data from paper PMC7615648.
Results are given in words; binding and its absence hold for the method and conditions named. Some entries that bind do so weakly or less than the wild type. Sequences can lack the tags named with a protein.

Biological target: T1, His-Spt4 (S. cerevisiae) (UniProt P32914)
T1 sequence: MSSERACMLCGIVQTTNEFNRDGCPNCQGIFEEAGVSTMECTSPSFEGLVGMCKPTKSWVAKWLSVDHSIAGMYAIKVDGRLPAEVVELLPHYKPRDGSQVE
Assay: co-purification; His-Spt4 and Spt5 co-expressed in Sf9; His-trap (300 mM NaCl, eluted with 250 mM imidazole), HiTrap Heparin and MonoQ salt gradients

binding: binds
B1: Spt5 (protein, UniProt P27692 1-1063)
chain: MSDNSDTNVSMQDHDQQFADPVVVPQSTDTKDENTSDKDTVDSGNVTTTESTERAESTSNIPPLDGEEKEAKSEPQQPEDNAETAATEQVSSSNGPATDDAQATLNTDSSEANEIVKKEEGSDERKRPREEDTKNSDGDTKDEGDNKDEDDDEDDDDDDDDEDDDDEAPTKRRRQERNRFLDIEAEVSDDEDEDEDEEDSELVREGFITHGDDEDDEASAPGARRDDRLHRQLDQDLNKTSEEDAQRLAKELRERYGRSSSKQYRAAAQDGYVPQRFLLPSVDTATIWGVRCRPGKEKELIRKLLKKKFNLDRAMGKKKLKILSIFQRDNYTGRIYIEAPKQSVIEKFCNGVPDIYISQKLLIPVQELPLLLKPNKSDDVALEEGSYVRIKRGIYKGDLAMVDQISENNLEVMLKIVPRLDYGKFDEIDPTTQQRKSRRPTFAHRAPPQLFNPTMALRLDQANLYKRDDRHFTYKNEDYIDGYLYKSFRIQHVETKNIQPTVEELARFGSKEGAVDLTSVSQSIKKAQAAKVTFQPGDRIEVLNGEQRGSKGIVTRTTKDIATIKLNGFTTPLEFPISTLRKIFEPGDHVTVINGEHQGDAGLVLMVEQGQVTFMSTQTSREVTITANNLSKSIDTTATSSEYALHDIVELSAKNVACIIQAGHDIFKVIDETGKVSTITKGSILSKINTARARVSSVDANGNEIKIGDTIVEKVGSRREGQVLYIQTQQIFVVSKKIVENAGVFVVNPSNVEAVASKDNMLSNKMDLSKMNPEIISKMGPPSSKTFQQPIQSRGGREVALGKTVRIRSAGYKGQLGIVKDVNGDKATVELHSKNKHITIDKHKLTYYNREGGEGITYDELVNRRGRVPQARMGPSYVSAPRNMATGGIAAGAAATSSGLSGGMTPGWSSFDGGKTPAVNAHGGSGGGGVSSWGGASTWGGQGNGGASAWGGAGGGASAWGGQGTGATSTWGGASAWGNKSSWGGASTWASGGESNGAMSTWGGTGDRSAYGGASTWGGNNNNKSTRDGGASAWGNQDDGNRSAWNNQGNKSNYGGNSTWGGH
